PubChem BioAssay AID1259254 – NCATS – 2017

- Aim: 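Finding genes that stop cells copying their DNA twice in one cycle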 (primary screen)
- Cells: human HCT116 colorectal cancer cells
- Reagent: single siRNA against human genes
- Timing: 3 days
- Measured: 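Nuclei stained with Hoechst and imaged; cell-cycle phase assigned by DNA content; G2 share scaled per plate, non-targeting siRNA 0%, GMNN siRNA 100%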
- Direction: G2 robust z-score: higher = more G2 cells, more excess DNA replication
- Rule for the call: 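An siRNA counts as active if its G2 robust z-score lies at least 5 MADs above the screen median; here such calls match roughly 38% of GMNN control or more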
Here is an unselected part of about 59,000 deposited reagents. About 1,550 of them (2.6%) count as active. 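G2 share is only a proxy for re-replication; each gene was hit by three separate siRNAs, and active genes were retested.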 The numbers tell different reagents against one gene apart. Not all columns of the deposit are shown. No sequences are given here. Not given: the amount of reagent.

CBX4 (GeneID 8535) #1 — G2 robust z-score = -0.458; outcome = inactive
CBX4 (GeneID 8535) #2 — G2 robust z-score = -0.121; outcome = inactive
CBX4 (GeneID 8535) #3 — G2 robust z-score = 0.495; outcome = inactive
RAB11B (GeneID 9230) #1 — G2 robust z-score = 1.98; outcome = inactive
RAB11B (GeneID 9230) #2 — G2 robust z-score = 3.56; outcome = inactive
RAB11B (GeneID 9230) #3 — G2 robust z-score = 1.37; outcome = inactive
KCTD7 (GeneID 154881) #1 — G2 robust z-score = 1.96; outcome = inactive
KCTD7 (GeneID 154881) #2 — G2 robust z-score = 0.18; outcome = inactive
KCTD7 (GeneID 154881) #3 — G2 robust z-score = 0.641; outcome = inactive
CDK3 (GeneID 1018) #1 — G2 robust z-score = -0.105; outcome = inactive
CDK3 (GeneID 1018) #2 — G2 robust z-score = -0.851; outcome = inactive
CDK3 (GeneID 1018) #3 — G2 robust z-score = -1.2; outcome = inactive
ACOT4 (GeneID 122970) #1 — G2 robust z-score = 2.81; outcome = inactive
ACOT4 (GeneID 122970) #2 — G2 robust z-score = 0.172; outcome = inactive
ACOT4 (GeneID 122970) #3 — G2 robust z-score = -0.958; outcome = inactive
PDGFRA (GeneID 5156) #1 — G2 robust z-score = -1.1; outcome = inactive
PDGFRA (GeneID 5156) #2 — G2 robust z-score = -0.368; outcome = inactive
PDGFRA (GeneID 5156) #3 — G2 robust z-score = -0.879; outcome = inactive

Single entries from the list.
Entry for PDGFRA (GeneID 5156) #1 in “G2 robust z-score”: -1.1
Under “G2 robust z-score”, ACOT4 (GeneID 122970) #1 shows 2.81
